Reference: the supplement of paper PMC10849652
The other results are listed elsewhere or left out. Residues, ends and D or L forms follow the SMILES beside them. *: point of attachment. Cbz = O=C(OCc1ccccc1)*

Protein sequences, listed by entry. Tags and fused reporters are not part of them. Lines headed by an entry give the natural chain unless they say otherwise; changes in a name come on top.
UniProt Q9H900: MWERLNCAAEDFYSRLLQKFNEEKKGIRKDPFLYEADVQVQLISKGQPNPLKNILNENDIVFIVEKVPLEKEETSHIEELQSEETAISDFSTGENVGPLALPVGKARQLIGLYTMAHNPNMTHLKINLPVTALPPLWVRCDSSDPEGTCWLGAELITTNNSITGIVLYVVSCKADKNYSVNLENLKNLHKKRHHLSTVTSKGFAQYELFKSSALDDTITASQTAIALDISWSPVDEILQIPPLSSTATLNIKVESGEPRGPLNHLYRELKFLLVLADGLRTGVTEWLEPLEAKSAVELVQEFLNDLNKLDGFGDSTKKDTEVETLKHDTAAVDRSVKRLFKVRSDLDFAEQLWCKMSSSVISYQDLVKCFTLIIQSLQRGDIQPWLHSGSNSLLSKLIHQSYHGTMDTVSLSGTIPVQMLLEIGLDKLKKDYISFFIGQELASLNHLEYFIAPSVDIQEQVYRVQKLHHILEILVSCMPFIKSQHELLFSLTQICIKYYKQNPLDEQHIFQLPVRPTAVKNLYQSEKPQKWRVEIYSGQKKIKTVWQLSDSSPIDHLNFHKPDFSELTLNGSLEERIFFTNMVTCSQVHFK
UniProt O95229: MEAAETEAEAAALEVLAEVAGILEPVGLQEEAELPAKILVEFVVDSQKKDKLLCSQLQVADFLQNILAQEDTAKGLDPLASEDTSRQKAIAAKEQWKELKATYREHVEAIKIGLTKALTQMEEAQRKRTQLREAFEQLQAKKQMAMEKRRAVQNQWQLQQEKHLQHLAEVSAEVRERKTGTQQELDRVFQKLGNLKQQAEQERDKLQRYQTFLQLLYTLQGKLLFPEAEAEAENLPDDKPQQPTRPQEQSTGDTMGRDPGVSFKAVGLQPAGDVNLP
UniProt Q9C0D3: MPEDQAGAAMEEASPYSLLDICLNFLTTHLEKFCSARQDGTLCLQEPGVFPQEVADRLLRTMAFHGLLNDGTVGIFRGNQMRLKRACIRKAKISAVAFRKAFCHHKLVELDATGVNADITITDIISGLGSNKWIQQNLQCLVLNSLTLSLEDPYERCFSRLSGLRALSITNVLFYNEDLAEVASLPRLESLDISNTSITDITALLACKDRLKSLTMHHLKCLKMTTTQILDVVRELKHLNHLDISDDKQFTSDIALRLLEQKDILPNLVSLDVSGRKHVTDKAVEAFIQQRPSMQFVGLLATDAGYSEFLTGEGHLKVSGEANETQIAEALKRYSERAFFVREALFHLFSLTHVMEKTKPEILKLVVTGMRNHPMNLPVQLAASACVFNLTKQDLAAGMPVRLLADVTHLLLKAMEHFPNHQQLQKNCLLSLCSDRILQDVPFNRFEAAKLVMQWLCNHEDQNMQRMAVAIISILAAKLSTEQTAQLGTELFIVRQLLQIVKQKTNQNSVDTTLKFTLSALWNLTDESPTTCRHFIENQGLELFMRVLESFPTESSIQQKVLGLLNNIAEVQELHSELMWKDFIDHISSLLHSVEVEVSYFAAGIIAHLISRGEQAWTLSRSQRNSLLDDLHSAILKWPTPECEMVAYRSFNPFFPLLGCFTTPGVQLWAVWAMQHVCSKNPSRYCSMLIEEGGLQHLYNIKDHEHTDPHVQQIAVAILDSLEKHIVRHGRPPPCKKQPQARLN
UniProt Q15942: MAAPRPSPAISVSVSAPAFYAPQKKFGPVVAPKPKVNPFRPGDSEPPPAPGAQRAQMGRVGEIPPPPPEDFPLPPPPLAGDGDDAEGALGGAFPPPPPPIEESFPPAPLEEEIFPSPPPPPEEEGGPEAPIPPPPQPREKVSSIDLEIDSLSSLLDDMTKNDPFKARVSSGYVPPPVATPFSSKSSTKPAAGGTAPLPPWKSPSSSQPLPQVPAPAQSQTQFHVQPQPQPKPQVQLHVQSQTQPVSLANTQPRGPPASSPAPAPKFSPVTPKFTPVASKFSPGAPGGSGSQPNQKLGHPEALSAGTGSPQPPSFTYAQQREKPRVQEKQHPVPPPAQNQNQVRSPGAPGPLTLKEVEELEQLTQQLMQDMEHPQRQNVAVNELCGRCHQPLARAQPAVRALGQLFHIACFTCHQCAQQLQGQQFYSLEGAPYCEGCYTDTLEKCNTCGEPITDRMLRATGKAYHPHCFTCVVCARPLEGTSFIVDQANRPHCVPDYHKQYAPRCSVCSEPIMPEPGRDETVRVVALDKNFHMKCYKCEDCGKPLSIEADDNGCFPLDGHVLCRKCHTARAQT
UniProt O43149: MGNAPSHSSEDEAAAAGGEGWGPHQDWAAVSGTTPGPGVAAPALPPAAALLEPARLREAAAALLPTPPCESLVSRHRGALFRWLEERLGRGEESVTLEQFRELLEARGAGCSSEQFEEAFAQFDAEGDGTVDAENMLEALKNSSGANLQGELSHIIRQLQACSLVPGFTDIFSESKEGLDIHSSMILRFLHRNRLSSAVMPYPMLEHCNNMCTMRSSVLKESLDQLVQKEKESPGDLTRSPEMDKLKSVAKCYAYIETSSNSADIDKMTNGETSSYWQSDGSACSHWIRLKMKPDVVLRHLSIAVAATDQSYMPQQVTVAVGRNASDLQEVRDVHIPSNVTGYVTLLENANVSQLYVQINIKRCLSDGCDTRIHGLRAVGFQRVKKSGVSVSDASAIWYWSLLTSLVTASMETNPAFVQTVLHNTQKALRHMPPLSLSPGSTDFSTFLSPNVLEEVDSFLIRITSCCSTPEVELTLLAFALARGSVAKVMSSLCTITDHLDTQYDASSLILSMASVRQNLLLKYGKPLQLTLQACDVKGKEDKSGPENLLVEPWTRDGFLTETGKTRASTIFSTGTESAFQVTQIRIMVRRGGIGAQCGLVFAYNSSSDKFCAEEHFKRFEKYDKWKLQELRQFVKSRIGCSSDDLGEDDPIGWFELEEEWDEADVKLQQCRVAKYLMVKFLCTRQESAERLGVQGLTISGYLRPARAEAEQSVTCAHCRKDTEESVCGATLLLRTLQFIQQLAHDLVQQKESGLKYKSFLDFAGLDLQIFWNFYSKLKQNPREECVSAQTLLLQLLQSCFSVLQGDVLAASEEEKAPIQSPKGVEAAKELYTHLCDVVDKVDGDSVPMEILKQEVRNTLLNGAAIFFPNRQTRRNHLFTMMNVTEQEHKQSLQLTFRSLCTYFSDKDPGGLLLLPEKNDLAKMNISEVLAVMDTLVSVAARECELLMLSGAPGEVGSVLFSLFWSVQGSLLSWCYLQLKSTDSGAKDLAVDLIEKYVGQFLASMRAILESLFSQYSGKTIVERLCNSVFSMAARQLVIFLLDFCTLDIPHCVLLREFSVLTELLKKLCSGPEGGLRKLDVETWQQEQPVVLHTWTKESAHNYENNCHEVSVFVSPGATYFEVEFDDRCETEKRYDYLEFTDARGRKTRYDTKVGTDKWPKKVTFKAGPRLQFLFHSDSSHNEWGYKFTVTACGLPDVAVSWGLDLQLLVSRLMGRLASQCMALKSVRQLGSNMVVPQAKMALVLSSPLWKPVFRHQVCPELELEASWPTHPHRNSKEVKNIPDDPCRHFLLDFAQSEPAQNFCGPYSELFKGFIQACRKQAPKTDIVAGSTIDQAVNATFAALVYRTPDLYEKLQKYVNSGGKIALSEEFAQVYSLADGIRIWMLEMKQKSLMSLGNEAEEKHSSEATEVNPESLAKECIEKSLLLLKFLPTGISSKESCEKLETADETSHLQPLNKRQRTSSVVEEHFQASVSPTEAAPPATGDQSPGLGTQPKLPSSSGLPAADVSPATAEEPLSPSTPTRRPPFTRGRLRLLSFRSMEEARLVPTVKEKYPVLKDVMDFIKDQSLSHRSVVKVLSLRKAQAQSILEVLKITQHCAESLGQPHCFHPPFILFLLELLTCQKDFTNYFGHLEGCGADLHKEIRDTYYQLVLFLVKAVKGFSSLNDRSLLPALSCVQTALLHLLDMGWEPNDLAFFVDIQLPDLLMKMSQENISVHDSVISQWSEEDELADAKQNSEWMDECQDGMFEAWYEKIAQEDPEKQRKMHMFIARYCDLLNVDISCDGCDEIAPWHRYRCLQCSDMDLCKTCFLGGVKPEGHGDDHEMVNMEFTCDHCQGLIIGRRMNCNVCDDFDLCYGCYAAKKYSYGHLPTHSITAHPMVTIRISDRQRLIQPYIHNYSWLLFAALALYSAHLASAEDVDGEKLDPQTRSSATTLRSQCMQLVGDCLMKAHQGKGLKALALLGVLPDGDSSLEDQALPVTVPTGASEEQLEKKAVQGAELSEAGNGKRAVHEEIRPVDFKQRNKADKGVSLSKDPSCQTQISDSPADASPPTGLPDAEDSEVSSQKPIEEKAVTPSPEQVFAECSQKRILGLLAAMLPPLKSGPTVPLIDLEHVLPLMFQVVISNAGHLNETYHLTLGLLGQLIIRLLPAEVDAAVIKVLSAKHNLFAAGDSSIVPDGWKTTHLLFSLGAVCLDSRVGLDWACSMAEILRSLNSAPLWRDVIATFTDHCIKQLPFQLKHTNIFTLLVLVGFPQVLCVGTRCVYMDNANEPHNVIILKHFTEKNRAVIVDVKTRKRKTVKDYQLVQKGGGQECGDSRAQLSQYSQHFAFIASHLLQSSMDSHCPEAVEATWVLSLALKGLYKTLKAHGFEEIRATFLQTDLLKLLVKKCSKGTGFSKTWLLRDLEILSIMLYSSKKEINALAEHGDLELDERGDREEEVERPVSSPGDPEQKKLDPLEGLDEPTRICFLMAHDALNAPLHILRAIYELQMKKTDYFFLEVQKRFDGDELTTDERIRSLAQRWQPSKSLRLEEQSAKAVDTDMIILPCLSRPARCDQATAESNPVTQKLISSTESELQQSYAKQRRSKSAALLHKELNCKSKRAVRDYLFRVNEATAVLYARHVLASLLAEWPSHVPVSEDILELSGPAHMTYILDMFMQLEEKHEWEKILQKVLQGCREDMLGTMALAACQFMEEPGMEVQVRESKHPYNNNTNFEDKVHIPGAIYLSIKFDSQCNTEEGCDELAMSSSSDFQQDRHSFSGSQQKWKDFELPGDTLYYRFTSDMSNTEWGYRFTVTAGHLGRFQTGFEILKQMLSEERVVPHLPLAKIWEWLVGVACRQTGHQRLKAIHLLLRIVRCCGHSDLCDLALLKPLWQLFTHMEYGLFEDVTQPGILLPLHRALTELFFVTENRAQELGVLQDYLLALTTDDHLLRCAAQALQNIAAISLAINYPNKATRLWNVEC
UniProt Q8IYH5: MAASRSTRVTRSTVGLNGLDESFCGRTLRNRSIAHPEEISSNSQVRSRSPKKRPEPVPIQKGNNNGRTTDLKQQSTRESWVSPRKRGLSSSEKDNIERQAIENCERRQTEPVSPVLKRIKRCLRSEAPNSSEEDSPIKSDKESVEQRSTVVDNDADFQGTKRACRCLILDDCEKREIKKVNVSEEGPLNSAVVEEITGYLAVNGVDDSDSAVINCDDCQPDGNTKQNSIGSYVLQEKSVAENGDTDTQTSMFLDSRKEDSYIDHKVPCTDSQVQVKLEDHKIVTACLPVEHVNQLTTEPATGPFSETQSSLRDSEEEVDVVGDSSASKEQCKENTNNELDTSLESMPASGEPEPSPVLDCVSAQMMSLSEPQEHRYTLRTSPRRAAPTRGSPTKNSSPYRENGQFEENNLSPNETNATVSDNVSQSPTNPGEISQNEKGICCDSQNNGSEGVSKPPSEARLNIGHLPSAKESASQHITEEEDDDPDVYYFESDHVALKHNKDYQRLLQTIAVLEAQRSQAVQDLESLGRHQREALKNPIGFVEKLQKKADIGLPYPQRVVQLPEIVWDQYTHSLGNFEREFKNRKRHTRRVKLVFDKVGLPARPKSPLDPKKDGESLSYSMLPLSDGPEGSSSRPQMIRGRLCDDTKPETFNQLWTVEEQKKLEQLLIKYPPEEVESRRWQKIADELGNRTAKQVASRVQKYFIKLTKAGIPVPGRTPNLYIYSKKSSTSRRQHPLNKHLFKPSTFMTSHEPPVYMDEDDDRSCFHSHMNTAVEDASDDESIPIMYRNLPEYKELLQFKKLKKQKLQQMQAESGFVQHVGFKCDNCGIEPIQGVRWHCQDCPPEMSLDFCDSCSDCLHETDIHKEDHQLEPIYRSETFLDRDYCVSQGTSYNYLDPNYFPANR

What was measured:
Assay in all cases: log2 fold change, soluble protein after heating vs DMSO (PISA); higher = thermal stabilisation; K562 cells, 10 uM, 30 min; active = over 0.2 and 3.5 SD of the protein, either way, in both replicates (recomputed)
[1] = target: ZWILCH (UniProt Q9H900)
Outline: (§1)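 For each measurement, 10 μM compound was applied for 30 min to K562 cells at 2×10^6 cells/mL. Aliquots were heated for 3 min across 48°C-58°C, pooled, and extracted in PBS with 0.5% NP-40 at 4°C; the supernatant after 21,000xg for 90 min was soluble protein. This was quantified by TMTpro 16plex LC-MS/MS with channel sums equalised, and thermal stability was reported relative to control samples from duplicates, on a log2 fold-change scale.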

[2] = target: ZWINT (UniProt O95229)
Outline: as §1

[3] = target: ZYG11B (UniProt Q9C0D3)
Outline: as §1

[4] = target: ZYX (UniProt Q15942)
Outline: as §1

[5] = target: ZZEF1 (UniProt O43149)
Outline: as §1

[6] = target: ZZZ3 (UniProt Q8IYH5)
Outline: as §1

Measured: log2 fold change

Cn1cc(-c2ccc3nnc(C(F)(F)c4ccc5ncccc5c4)n3n2)cn1
inactive: [1] -0.069 | [2] -0.062 | [3] 0 | [4] 0.044 | [5] 0.049

COC(=O)N[C@@H](C)CNc1nccc(-c2cn(C(C)C)nc2-c2cc(Cl)cc(NS(C)(=O)=O)c2F)n1 [encorafenib]
inactive: [1] 0.076 | [2] 0.065 | [3] -0.055 | [4] -0.049 | [5] 0.097

CS(=O)(=O)c1ccc(-c2cnc(N)c(C(=O)Nc3ccccc3)n2)cc1
inactive: [1] -0.003 | [2] -0.015 | [3] 0.01 | [4] 0.008 | [5] 0.027

NC1(c2ccc(-c3nc4ccn5c(=O)[nH]nc5c4cc3-c3ccccc3)cc2)CCC1
inactive: [1] -0.097 | [2] -0.006 | [3] -0.087 | [4] 0.007 | [5] -0.16

Nc1ccccc1NC(=O)c1ccc(CNC(=O)OCc2cccnc2)cc1 [entinostat]
inactive: [1] 0.002 | [2] 0.012 | [3] 0.013 | [4] 0.003 | [5] -0.006

COc1cc(Nc2ncc3c(n2)-c2ccc(Cl)cc2C(c2c(F)cccc2OC)=NC3)ccc1C(=O)O [alisertib]
inactive: [1] -0.024 | [2] -0.024 | [3] -0.155 | [4] -0.012 | [5] 0.133

COc1cccc2cc(-c3nc([C@H]4CC[C@H](C(=O)O)CC4)n4ncnc(N)c34)[nH]c12
inactive: [1] -0.041 | [2] -0.045 | [3] 0.02 | [4] 0.03 | [5] -0.064

O=C(CCCCCCNC(=O)c1cnc(N(c2ccccc2)c2ccccc2Cl)nc1)NO [citarinostat]
inactive: [1] 0.104 | [2] 0.02 | [3] -0.043 | [4] 0.008 | [5] -0.002

CNC(=O)c1ccc(Nc2ncc(C(F)(F)F)c(NCc3nccnc3N(C)S(C)(=O)=O)n2)cc1 [defactinib]
inactive: [1] -0.007 | [2] -0.034 | [3] -0.058 | [4] -0.006 | [5] -0.039

COc1ccc(Cn2ccc3ccc(C(=O)NO)cc32)cc1
inactive: [1] 0.019 | [2] -0.038 | [3] 0.052 | [4] 0.011 | [5] -0.01

Cc1cc(SCc2sc(-c3ccc(C(F)(F)F)cc3)nc2C)ccc1OCC(=O)O
inactive: [1] 0.027 | [2] -0.019 | [3] -0.133 | [4] -0.02 | [5] 0.044

CN1CCN(c2nc(C3=C(c4c[nH]c5ccccc45)C(=O)NC3=O)c3ccccc3n2)CC1 [sotrastaurin]
inactive: [1] -0.059 | [2] -0.073 | [3] 0.026 | [4] 0.019 | [5] 0.003

C[C@@H](N)c1ccc(C(=O)Nc2ccnc3[nH]ccc23)cc1
inactive: [1] 0.014 | [2] -0.009 | [3] -0.035 | [4] -0.025 | [5] 0.053

c1cc(OCCN2CCCCC2)cc(-c2n[nH]c3ccc(-c4nnc[nH]4)cc23)c1
inactive: [1] -0.048 | [2] -0.082 | [3] 0.002 | [4] 0.017 | [5] -0.013

CCCS(=O)(=O)Nc1ccc(F)c(C(=O)c2c[nH]c3ncc(-c4ccc(Cl)cc4)cc23)c1F [vemurafenib]
inactive: [1] 0.04 | [2] 0.014 | [3] 0.048 | [4] 0 | [5] -0.045

CN1CCN(CCOc2cc(OC3CCOCC3)c3c(Nc4c(Cl)ccc5c4OCO5)ncnc3c2)CC1 [saracatinib]
inactive: [1] -0.012 | [2] 0.024 | [3] -0.051 | [4] 0.027 | [5] -0.067

Cc1cc(Nc2cc(CN3CCOCC3)c3nc(C)c(Cc4ccc(Cl)cc4F)n3n2)n[nH]1 [gandotinib]
inactive: [1] -0.12 | [2] 0.011 | [3] 0.093 | [4] 0.048 | [5] -0.098

CC(C)C[C@@H](C=O)NC(=O)[C@H](CC(C)C)NC(=O)[C@H](CC(C)C)NC(=O)OCc1ccccc1 (Cbz-Leu-Leu-Leu-aldehyde)
inactive: [1] 0.079 | [2] 0.085 | [3] 0.042 | [4] 0.022 | [5] 0.012

CO[C@H]1C[C@@H]2CC[C@@H](C)[C@@](O)(O2)C(=O)C(=O)N2CCCC[C@H]2C(=O)O[C@H]([C@H](C)C[C@@H]2CC[C@H](n3cnnn3)[C@H](OC)C2)CC(=O)[C@H](C)/C=C(\C)[C@@H](O)[C@@H](OC)C(=O)[C@H](C)C[C@H](C)/C=C/C=C/C=C/1C [zotarolimus]
inactive: [1] 0.046 | [2] 0.029 | [3] 0.024 | [4] -0.027 | [5] 0

Three entries out of the list, sorted by length of the SMILES, rising:
Cc1cc(Nc2cc(CN3CCOCC3)c3nc(C)c(Cc4ccc(Cl)cc4F)n3n2)n[nH]1 [gandotinib]
inactive: [1] -0.12 | [2] 0.011 | [3] 0.093 | [4] 0.048 | [5] -0.098

CN1CCN(CCOc2cc(OC3CCOCC3)c3c(Nc4c(Cl)ccc5c4OCO5)ncnc3c2)CC1 [saracatinib]
inactive: [1] -0.012 | [2] 0.024 | [3] -0.051 | [4] 0.027 | [5] -0.067

CCCS(=O)(=O)Nc1ccc(F)c(C(=O)c2c[nH]c3ncc(-c4ccc(Cl)cc4)cc23)c1F [vemurafenib]
inactive: [1] 0.04 | [2] 0.014 | [3] 0.048 | [4] 0 | [5] -0.045

Continuation:

C=CC(=O)N1CCC[C@@H](n2nc(-c3ccc(Oc4ccccc4)cc3)c3c(N)ncnc32)C1 [ibrutinib]
inactive: [1] -0.014 | [2] -0.031 | [3] 0.022 | [4] 0.013 | [5] -0.054

CCN(CCCOc1ccc2c(Nc3cc(CC(=O)Nc4cccc(F)c4)[nH]n3)ncnc2c1)CCOP(=O)(O)O [barasertib]
inactive: [1] 0.064 | [2] -0.008 | [3] 0.044 | [4] -0.006 | [5] 0.045

CS(=O)(=O)N1CCN(Cc2cc3nc(-c4cccc5[nH]ncc45)nc(N4CCOCC4)c3s2)CC1 [pictilisib]
inactive: [1] -0.026 | [2] 0.013 | [3] 0.104 | [4] 0.006 | [5] -0.028

Cn1c2cc(S(C)=O)sc2c2cnn(Cc3cccc(N)c3)c(=O)c21 (centres undefined)
inactive: [1] -0.04 | [2] 0.014 | [3] -0.053 | [4] -0.03 | [5] -0.017

CNCc1ccc(-c2[nH]c3cc(F)cc4c3c2CCNC4=O)cc1 [rucaparib]
inactive: [1] -0.051 | [2] 0.033 | [3] 0.061 | [4] 0.054 | [5] -0.013

C[C@@H]1COCCN1c1cc(C2(S(C)(=O)=O)CC2)nc(-c2cccc3[nH]ccc23)n1
inactive: [1] -0.04 | [2] -0.073 | [3] -0.008 | [4] -0.021 | [5] 0.022

CC(C)(O)CC(=O)NCCn1ccc2ncnc(Nc3ccc(Oc4cccc(C(F)(F)F)c4)c(Cl)c3)c21
inactive: [1] 0.012 | [2] -0.033 | [3] -0.017 | [4] 0.017 | [5] -0.093

NC1(Cc2ccc(Cl)cc2)CCN(c2ncnc3[nH]ccc23)CC1
inactive: [1] -0.049 | [2] -0.071 | [3] 0.055 | [4] 0.03 | [5] -0.028 | [6] 0.178

C[C@H](Nc1ncnc2nc[nH]c12)c1cc2cccc(Cl)c2c(=O)n1-c1ccccc1 [duvelisib]
inactive: [2] 0.038 | [4] -0.021 | [5] 0.014

CCCc1cc(C)[nH]c(=O)c1CNC(=O)c1cc(-c2ccnc(N3CCN(C)CC3)c2)cc2c1cnn2C(C)C
inactive: [1] 0.004 | [2] 0.004 | [3] 0.1 | [4] -0.035 | [5] 0.006

COc1cc2nc(-c3cc(F)ccc3O)nc(N[C@@H]3CNC[C@H]3C(C)(C)O)c2cc1OC
inactive: [1] 0.03 | [2] 0 | [3] 0.034 | [4] -0.038 | [5] 0.066 | [6] 0.058

O=C1c2ccccc2-c2n[nH]c3cccc1c23
inactive: [1] -0.007 | [2] -0.132 | [3] -0.033 | [4] -0.03 | [5] 0.052 | [6] 0.09

C/C(=N\NC(=O)c1cccc(S(=O)(=O)N2CCOCC2)c1)c1cc(Cl)ccc1O
inactive: [1] 0.038 | [2] -0.215 | [3] 0.006 | [4] -0.04 | [5] -0.005 | [6] 0.091

O=C1NC(=NCc2cccs2)S/C1=C\c1ccc2ncccc2c1
inactive: [1] 0.023 | [2] 0.032 | [3] -0.007 | [4] -0.032 | [5] 0.122 | [6] -0.079

CNC(=O)c1ccccc1Nc1nc(Nc2ccc(N3CCOCC3)cc2OC)ncc1Cl
inactive: [1] 0.027 | [2] 0.011 | [3] -0.016 | [4] 0.02 | [5] 0.061 | [6] -0.06
